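A panel of P. falciparum strains inside erythrocytes is exposed to compounds for three days, then a DNA-binding dye reports the amount of parasite DNA.
Each compound was titrated across a series from about 0.000037 to 29 µM.
The number is the fitted AC50, the concentration giving a half-maximal change in signal; a lower value means higher potency, whether the curve shows a decrease or an increase.
Calls follow the curve class and fit quality: every row here is inconclusive, covering signal-raising curves and weak, poorly fitted, partial or highest-dose-only inhibition curves.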

Values are in µM.
All entries here are filed as inconclusive.
Only part of the assay is shown, chiefly results filed as inconclusive.
Potencies fitted to partial, single-point or poorly fitting curves are rough.
The first word of each remark tells which way the curve ran; it can be opposite to the aim of the assay.

| SMILES | tested on / at | potency (µM) | curve |
|---|---|---|---|
| `Cc1ccc(-c2cc(C(F)(F)F)nn2-c2ccc(S(N)(=O)=O)cc2)cc1` | ATS95 | 11.22 | inhibitor, single point |
| `Cc1ccc(-c2cc(C(F)(F)F)nn2-c2ccc(S(N)(=O)=O)cc2)cc1` | ATS189 | 11.22 | inhibitor, single point |
| `Cc1ccc(-c2cc(C(F)(F)F)nn2-c2ccc(S(N)(=O)=O)cc2)cc1` | CP247 | 10 | inhibitor, single point |
| `Cc1ccc(-c2cc(C(F)(F)F)nn2-c2ccc(S(N)(=O)=O)cc2)cc1` | CP268 | 19.01 | inhibitor, single point |
| `Cc1ccc(-c2cc(C(F)(F)F)nn2-c2ccc(S(N)(=O)=O)cc2)cc1` | AA1029 | 12.59 | inhibitor, single point |
| `Cc1ccc(-c2cc(C(F)(F)F)nn2-c2ccc(S(N)(=O)=O)cc2)cc1` | CP262 | 19.01 | inhibitor, single point |
| `Cc1ccc(-c2cc(C(F)(F)F)nn2-c2ccc(S(N)(=O)=O)cc2)cc1` | CP201 | 16.94 | inhibitor, single point |
| `Cc1ccc(-c2cc(C(F)(F)F)nn2-c2ccc(S(N)(=O)=O)cc2)cc1` | DIV17 | 16.94 | inhibitor, single point |
| `Cc1ccc(-c2cc(C(F)(F)F)nn2-c2ccc(S(N)(=O)=O)cc2)cc1` | DIV14 | 15.1 | inhibitor, single point |
| `Cc1ccc(-c2cc(C(F)(F)F)nn2-c2ccc(S(N)(=O)=O)cc2)cc1` | CP192 | 9.528 | inhibitor, partial curve |
| `Cc1ccc(-c2cc(C(F)(F)F)nn2-c2ccc(S(N)(=O)=O)cc2)cc1` | CP211 | 12 | inhibitor, single point |
| `Cc1ccc(-c2cc(C(F)(F)F)nn2-c2ccc(S(N)(=O)=O)cc2)cc1` | CP260 | 10 | inhibitor, partial curve |
| `Cc1ccc(-c2cc(C(F)(F)F)nn2-c2ccc(S(N)(=O)=O)cc2)cc1` | DFO2036 | 11.22 | inhibitor, partial curve, poor fit |
| `Cc1ccc(-c2cc(C(F)(F)F)nn2-c2ccc(S(N)(=O)=O)cc2)cc1` | C2A | 7.943 | inhibitor, partial curve |
| `Cc1ccc(-c2cc(C(F)(F)F)nn2-c2ccc(S(N)(=O)=O)cc2)cc1` | CP250 | 17.78 | inhibitor, single point |
| `Cc1ccc(-c2cc(C(F)(F)F)nn2-c2ccc(S(N)(=O)=O)cc2)cc1` | DIV30 | 15.1 | inhibitor, single point |
| `Cc1ccc(-c2cc(C(F)(F)F)nn2-c2ccc(S(N)(=O)=O)cc2)cc1` | CP203 | 15.1 | inhibitor, single point |
| `Cc1ccc(-c2cc(C(F)(F)F)nn2-c2ccc(S(N)(=O)=O)cc2)cc1` | CP266 | 10.69 | inhibitor, single point |
| `Cc1ccc(-c2cc(C(F)(F)F)nn2-c2ccc(S(N)(=O)=O)cc2)cc1` | AS120 | 10 | inhibitor, single point |
| `Cc1ccc(-c2cc(C(F)(F)F)nn2-c2ccc(S(N)(=O)=O)cc2)cc1` | CP194 | 15.1 | inhibitor, single point |
| `Oc1ccc(Cl)c2c1CCC2` | CP297 | 21.33 | inhibitor, single point |
| `Oc1ccc(Cl)c2c1CCC2` | ICS | 12.59 | inhibitor, single point |
| `Oc1ccc(Cl)c2c1CCC2` | CP266 | 1.51 | inhibitor, partial curve |
| `Oc1ccc(Cl)c2c1CCC2` | DIV17 | 16.94 | inhibitor, partial curve, poor fit |
| `Oc1ccc(Cl)c2c1CCC2` | 7G8 | 8.912 | inhibitor, partial curve |
| `Oc1ccc(Cl)c2c1CCC2` | CP335 | 0.0013 | activator |
| `O=C1OCCN1/N=C/c1ccc([N+](=O)[O-])o1` | PC26 | 16.94 | inhibitor, single point |
| `O=C1OCCN1/N=C/c1ccc([N+](=O)[O-])o1` | CP217 | 11.22 | inhibitor, single point |
| `O=C1OCCN1/N=C/c1ccc([N+](=O)[O-])o1` | TAB113 | 17.78 | inhibitor, single point |
| `O=C1OCCN1/N=C/c1ccc([N+](=O)[O-])o1` | CP268 | 19.01 | inhibitor, single point |
| `O=C1OCCN1/N=C/c1ccc([N+](=O)[O-])o1` | N140 | 11.22 | inhibitor, single point |
| `O=C1OCCN1/N=C/c1ccc([N+](=O)[O-])o1` | CP260 | 12.59 | inhibitor, single point |
| `O=C1OCCN1/N=C/c1ccc([N+](=O)[O-])o1` | CP247 | 10 | inhibitor, single point |
| `O=C1OCCN1/N=C/c1ccc([N+](=O)[O-])o1` | PAD | 15.85 | inhibitor, single point |
| `O=C1OCCN1/N=C/c1ccc([N+](=O)[O-])o1` | DIV30 | 19.01 | inhibitor, single point |
| `O=C1OCCN1/N=C/c1ccc([N+](=O)[O-])o1` | 3D7 | 11.22 | inhibitor, single point |
| `O=C1OCCN1/N=C/c1ccc([N+](=O)[O-])o1` | ATS95 | 17.78 | inhibitor, single point |
| `O=C1OCCN1/N=C/c1ccc([N+](=O)[O-])o1` | CP201 | 19.01 | inhibitor, single point |
| `O=C1OCCN1/N=C/c1ccc([N+](=O)[O-])o1` | ATS189 | 15.85 | inhibitor, single point |
| `O=C1OCCN1/N=C/c1ccc([N+](=O)[O-])o1` | CP238 | 17.78 | inhibitor, single point |
| `O=C1OCCN1/N=C/c1ccc([N+](=O)[O-])o1` | CP203 | 12 | inhibitor, single point |
| `O=C1OCCN1/N=C/c1ccc([N+](=O)[O-])o1` | HB3 | 11.22 | inhibitor, single point |
| `O=C1OCCN1/N=C/c1ccc([N+](=O)[O-])o1` | P94_40 | 17.78 | inhibitor, single point |
| `O=C1OCCN1/N=C/c1ccc([N+](=O)[O-])o1` | CP291 | 19.01 | inhibitor, partial curve, poor fit |
| `O=C1OCCN1/N=C/c1ccc([N+](=O)[O-])o1` | CP191 | 12.59 | inhibitor, single point |
| `O=C1OCCN1/N=C/c1ccc([N+](=O)[O-])o1` | DIV17 | 19.01 | inhibitor, single point |
| `O=C1OCCN1/N=C/c1ccc([N+](=O)[O-])o1` | CP265 | 14.13 | inhibitor, single point |
| `O=C1OCCN1/N=C/c1ccc([N+](=O)[O-])o1` | CP305 | 19.01 | inhibitor, single point |

Some entries from above, unchanged:

SMILES,tested on / at,potency (µM),curve
Cc1ccc(-c2cc(C(F)(F)F)nn2-c2ccc(S(N)(=O)=O)cc2)cc1,DIV30,15.1,"inhibitor, single point"
Oc1ccc(Cl)c2c1CCC2,7G8,8.912,"inhibitor, partial curve"
O=C1OCCN1/N=C/c1ccc([N+](=O)[O-])o1,CP265,14.13,"inhibitor, single point"

From PubChem BioAssay record AID504749 (NCATS, 2011).